Data: PMC4462140
Results are given in words; binding and its absence hold for the method and conditions named. Some entries that bind do so weakly or less than the wild type.

Target: myristoylated zGCAP7 (zebrafish) (UniProt Q5MAC7)
Assay: SEC; analytical size exclusion chromatography of purified myristoylated zGCAPs on a Primaide HPLC system, as described previously (refs 12, 18, 30); Ca2+ dependence tested; data not shown; both purified

binding: binds
B1: myristoylated zGCAP7 (protein, UniProt Q5MAC7 1-187)
chain: MGQNQSDEEEEEVELTEIQPLYTRFMKVCPSGALHLHEFRRIFGVQSSSEEEALYMETIFKSFDTNRDNVIDFMEFVAAVHLVLRGNLEDRLKWSFKVYDRDENGKLDRQEVIHVIRILCKLKKNRINMTPVEICDRIFELLDENNDGQISLSEFLEGAEKDAWIMDLLKLDTNARVWFRDNLGKKT
modifications: N-terminal myristoyl group
